Measurements: the supplement of paper PMC10849652
The other results are listed elsewhere or left out.

The chains behind the UniProt entries cited, without tags or fusion partners. Where a name states a change or a piece, a line headed by the entry shows the natural chain unless it says otherwise.
UniProt P53618: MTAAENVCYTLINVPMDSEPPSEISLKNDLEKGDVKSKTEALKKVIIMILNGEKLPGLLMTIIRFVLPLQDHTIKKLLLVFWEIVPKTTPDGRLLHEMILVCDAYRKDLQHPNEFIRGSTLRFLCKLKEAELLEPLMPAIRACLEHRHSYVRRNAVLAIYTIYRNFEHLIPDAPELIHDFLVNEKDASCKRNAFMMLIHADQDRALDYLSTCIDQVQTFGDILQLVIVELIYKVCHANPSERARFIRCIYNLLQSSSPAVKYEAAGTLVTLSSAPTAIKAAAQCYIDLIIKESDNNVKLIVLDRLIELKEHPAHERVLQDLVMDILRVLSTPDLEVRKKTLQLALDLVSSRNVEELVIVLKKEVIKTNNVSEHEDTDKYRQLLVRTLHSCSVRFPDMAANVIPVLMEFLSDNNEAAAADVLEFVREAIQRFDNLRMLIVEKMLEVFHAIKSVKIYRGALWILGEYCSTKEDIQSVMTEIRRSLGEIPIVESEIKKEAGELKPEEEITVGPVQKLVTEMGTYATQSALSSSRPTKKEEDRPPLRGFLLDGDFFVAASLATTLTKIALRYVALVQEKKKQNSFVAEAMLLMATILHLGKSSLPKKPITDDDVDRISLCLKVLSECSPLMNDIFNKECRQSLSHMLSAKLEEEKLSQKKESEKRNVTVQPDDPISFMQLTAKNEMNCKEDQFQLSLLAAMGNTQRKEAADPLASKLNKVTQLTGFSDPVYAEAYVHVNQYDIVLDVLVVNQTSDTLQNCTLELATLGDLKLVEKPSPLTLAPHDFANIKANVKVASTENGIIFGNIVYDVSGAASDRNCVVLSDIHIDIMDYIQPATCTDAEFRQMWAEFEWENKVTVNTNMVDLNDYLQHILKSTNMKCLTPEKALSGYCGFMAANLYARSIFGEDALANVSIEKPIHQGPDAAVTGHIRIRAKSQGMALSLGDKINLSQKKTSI
UniProt Q13057: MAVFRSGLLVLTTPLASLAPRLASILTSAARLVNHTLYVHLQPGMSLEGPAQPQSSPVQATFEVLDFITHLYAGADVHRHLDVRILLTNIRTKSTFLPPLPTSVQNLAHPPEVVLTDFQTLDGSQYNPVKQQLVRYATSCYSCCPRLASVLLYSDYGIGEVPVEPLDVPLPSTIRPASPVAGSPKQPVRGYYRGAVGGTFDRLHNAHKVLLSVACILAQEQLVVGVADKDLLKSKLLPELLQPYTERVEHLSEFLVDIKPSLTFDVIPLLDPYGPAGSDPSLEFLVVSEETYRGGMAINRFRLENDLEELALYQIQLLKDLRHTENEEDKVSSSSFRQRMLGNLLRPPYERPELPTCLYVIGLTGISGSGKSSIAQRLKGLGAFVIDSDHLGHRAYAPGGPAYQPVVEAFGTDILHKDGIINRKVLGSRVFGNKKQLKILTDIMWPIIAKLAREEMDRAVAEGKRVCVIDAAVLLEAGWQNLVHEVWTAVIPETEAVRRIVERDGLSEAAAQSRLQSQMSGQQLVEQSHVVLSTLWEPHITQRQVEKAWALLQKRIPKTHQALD
UniProt P36551: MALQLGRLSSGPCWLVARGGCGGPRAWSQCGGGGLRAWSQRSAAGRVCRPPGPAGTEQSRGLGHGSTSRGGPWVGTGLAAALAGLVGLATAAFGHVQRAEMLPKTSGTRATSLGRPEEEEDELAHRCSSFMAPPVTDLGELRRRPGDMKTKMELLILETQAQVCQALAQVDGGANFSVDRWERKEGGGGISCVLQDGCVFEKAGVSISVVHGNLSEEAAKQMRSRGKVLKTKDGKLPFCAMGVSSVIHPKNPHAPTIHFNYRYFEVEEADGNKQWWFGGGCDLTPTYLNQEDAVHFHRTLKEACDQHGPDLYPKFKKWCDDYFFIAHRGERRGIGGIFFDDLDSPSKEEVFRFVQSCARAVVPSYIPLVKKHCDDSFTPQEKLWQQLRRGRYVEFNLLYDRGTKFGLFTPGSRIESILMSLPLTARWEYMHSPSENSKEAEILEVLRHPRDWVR
UniProt Q8N129: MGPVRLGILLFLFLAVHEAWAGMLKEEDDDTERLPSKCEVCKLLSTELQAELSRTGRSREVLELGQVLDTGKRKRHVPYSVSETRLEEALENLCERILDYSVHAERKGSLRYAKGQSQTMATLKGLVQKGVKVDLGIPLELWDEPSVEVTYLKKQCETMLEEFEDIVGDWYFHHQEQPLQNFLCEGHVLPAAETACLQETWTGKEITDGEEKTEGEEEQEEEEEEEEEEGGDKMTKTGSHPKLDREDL
UniProt P61923: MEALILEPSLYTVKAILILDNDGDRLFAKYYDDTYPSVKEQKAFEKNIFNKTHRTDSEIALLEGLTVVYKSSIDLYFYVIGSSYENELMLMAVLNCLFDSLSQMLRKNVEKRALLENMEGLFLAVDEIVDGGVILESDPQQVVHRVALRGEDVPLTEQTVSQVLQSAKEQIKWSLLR
UniProt P23786: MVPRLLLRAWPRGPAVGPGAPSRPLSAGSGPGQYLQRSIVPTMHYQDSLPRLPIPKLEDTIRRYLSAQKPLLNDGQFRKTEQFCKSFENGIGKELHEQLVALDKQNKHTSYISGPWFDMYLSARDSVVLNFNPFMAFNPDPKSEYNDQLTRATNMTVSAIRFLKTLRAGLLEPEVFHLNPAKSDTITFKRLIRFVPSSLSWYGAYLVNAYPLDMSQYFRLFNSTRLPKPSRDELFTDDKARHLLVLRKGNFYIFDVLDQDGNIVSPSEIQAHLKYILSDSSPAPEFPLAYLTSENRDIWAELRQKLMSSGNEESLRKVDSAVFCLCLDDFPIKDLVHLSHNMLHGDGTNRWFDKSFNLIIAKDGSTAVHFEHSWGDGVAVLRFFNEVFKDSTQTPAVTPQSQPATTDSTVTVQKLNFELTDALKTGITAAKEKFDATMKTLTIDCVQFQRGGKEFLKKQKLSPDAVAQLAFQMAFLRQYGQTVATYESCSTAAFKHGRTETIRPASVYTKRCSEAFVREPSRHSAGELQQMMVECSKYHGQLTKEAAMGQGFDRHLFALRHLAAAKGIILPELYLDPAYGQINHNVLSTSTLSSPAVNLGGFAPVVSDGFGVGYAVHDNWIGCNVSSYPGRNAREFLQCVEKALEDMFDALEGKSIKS
UniProt Q7Z4G1, whole entry, looked up: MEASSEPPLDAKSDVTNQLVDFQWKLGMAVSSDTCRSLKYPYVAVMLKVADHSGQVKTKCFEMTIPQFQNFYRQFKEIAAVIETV
UniProt P10606, whole entry, looked up: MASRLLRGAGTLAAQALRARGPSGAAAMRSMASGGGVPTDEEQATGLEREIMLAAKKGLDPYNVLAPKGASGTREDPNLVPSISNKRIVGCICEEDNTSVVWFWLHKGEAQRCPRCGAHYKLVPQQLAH
UniProt P51911: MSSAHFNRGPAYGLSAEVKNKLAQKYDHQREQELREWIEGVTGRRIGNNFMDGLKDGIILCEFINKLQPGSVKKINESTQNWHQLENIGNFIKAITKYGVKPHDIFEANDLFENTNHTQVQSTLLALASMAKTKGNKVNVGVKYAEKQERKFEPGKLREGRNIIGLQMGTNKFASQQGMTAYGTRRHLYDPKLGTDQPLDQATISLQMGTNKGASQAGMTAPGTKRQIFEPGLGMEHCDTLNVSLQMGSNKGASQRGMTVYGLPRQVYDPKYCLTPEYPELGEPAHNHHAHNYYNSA
UniProt Q9UKF6: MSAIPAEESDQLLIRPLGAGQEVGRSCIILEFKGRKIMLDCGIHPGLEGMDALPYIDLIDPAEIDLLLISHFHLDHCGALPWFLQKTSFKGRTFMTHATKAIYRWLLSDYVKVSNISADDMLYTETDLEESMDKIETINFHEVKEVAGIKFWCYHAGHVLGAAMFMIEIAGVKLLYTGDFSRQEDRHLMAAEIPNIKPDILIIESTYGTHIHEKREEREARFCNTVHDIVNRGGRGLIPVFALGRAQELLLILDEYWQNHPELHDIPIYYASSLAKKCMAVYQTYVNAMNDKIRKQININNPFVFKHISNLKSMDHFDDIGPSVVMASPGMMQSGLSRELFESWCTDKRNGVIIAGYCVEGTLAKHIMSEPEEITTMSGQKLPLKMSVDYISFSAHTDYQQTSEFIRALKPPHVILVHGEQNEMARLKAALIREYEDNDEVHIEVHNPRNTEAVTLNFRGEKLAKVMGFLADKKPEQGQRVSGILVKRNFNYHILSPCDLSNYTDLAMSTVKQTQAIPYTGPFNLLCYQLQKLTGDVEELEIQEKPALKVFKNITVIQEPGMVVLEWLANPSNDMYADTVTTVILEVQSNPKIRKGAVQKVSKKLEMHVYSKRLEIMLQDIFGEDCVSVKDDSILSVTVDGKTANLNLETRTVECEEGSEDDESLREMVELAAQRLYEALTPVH
UniProt Q8N8Q8: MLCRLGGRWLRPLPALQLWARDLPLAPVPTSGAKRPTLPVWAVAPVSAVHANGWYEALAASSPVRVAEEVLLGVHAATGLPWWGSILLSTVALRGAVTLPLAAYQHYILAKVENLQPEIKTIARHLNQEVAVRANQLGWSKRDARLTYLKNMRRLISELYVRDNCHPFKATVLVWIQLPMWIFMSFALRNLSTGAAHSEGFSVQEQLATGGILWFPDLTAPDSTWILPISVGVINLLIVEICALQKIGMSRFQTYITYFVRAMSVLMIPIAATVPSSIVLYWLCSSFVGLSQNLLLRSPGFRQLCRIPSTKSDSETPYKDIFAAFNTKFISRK
UniProt Q86X83, whole entry, looked up: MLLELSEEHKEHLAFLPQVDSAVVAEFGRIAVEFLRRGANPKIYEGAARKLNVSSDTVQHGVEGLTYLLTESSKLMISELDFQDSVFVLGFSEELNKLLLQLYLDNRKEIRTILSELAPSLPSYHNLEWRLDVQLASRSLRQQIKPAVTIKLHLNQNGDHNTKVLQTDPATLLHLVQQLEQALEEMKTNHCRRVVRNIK
UniProt Q99807: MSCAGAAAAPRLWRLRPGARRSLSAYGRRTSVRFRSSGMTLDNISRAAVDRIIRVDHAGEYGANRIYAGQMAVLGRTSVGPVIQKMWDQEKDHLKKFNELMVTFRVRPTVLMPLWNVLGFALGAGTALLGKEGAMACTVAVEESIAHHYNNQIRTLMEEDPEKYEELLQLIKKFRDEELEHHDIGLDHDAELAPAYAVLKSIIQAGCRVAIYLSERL
UniProt P83436: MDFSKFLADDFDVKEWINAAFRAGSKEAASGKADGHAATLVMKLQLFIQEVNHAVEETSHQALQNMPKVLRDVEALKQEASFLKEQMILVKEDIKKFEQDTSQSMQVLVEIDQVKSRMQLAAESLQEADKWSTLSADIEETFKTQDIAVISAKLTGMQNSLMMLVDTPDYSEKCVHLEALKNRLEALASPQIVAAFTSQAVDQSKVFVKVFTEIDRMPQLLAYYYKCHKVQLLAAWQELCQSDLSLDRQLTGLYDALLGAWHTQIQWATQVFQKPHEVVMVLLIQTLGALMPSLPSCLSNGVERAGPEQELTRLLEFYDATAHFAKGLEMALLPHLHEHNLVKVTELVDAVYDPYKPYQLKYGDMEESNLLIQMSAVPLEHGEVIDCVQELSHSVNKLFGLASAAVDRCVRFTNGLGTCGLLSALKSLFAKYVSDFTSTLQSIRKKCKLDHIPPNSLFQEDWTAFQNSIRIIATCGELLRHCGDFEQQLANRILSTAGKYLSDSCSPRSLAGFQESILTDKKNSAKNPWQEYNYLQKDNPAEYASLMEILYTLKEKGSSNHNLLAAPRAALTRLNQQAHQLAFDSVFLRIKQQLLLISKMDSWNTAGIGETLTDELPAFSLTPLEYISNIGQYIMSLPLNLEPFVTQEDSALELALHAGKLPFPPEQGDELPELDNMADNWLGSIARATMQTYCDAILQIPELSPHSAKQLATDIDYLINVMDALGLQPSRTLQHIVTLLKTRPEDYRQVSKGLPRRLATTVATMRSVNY
UniProt Q9UBL6: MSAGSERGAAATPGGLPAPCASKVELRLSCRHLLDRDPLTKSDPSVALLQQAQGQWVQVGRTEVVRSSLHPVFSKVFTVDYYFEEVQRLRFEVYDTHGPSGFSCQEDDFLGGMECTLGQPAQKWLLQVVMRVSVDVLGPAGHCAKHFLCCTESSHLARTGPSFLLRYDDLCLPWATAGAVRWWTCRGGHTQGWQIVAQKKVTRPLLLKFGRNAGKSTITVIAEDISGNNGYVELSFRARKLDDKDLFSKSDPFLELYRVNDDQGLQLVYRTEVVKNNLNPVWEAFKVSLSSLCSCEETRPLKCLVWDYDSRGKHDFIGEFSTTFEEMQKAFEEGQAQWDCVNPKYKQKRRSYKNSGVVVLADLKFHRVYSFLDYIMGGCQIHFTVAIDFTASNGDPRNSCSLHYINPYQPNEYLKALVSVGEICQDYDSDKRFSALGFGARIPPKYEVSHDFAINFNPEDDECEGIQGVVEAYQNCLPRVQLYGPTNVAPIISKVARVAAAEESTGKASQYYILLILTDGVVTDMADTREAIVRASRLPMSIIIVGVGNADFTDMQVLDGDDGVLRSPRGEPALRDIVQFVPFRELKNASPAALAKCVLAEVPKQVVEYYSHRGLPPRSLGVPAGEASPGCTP
UniProt Q9P003: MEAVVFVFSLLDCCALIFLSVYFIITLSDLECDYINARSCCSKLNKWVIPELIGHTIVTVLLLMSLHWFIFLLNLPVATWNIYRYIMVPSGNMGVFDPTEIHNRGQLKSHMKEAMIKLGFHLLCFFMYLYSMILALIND

How the values were obtained:
Experiment in all cases: log2 fold change, soluble protein after heating vs DMSO (PISA); higher = thermal stabilisation; K562 lysate, 10 uM; active = over 0.2 and 3.5 SD of the protein, either way, in both replicates (recomputed)
ibrutinib = compound: C=CC(=O)N1CCC[C@@H](n2nc(-c3ccc(Oc4ccccc4)cc3)c3c(N)ncnc32)C1 [ibrutinib]
In short: (§1)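 K562 pellets were dounce-homogenised in PBS pH 7.4 with 1 mM MgCl2, and the crude extract at 1 mg/mL protein was treated with 10 μM compound for 30 min. Aliquots were heated for 3 min across 48°C-58°C, pooled, and brought to 0.5% NP-40 at 4°C; soluble protein was the supernatant after 21,000xg for 90 min. Soluble protein was quantified by TMTpro 16plex LC-MS/MS with channel sums equalised, and reported as log2 fold change in thermal stability against DMSO controls, with values from duplicates.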

[1] = compound: CC(=O)c1cnc2ccc(-c3cc(Cl)c(O)c(Cl)c3)nc2c1N[C@H]1CC[C@H](CN(C)C)CC1
In short: as §1

ralimetinib = compound: CC(C)(C)Cn1c(N)nc2ccc(-c3[nH]c(C(C)(C)C)nc3-c3ccc(F)cc3)nc21 [ralimetinib]
In short: as §1

[2] = compound: CC(C)(O)CC(=O)NCCn1ccc2ncnc(Nc3ccc(Oc4cccc(C(F)(F)F)c4)c(Cl)c3)c21
In short: as §1

[3] = compound: CC(C)C1=C2N=C(C=C(N2N=C1)NCC3=CC=CC=C3)NCCCCCCN
In short: as §1

[4] = compound: CC1=C(C(CC(=O)N1)C2=CC=C(C=C2)C(F)(F)F)C(=O)NC3=C(C=C4C(=C3)C=NN4)F
In short: as §1

[5] = compound: CC1=C(C2=C(C=C1)C(=O)C3=CC=CC=C3N2CCCN)C
In short: as §1

[6] = compound: CC1=C(C=C(C=C1)NC(=O)C2=CC(=CC=C2)C(C)(C)C#N)NC3=CC4=C(C=C3)N=CN(C4=O)C
In short: as §1

[7] = compound: CC1=C(C=C(C=C1)NC(=O)C2=CC(=CC=C2)N(C)C)NC(=O)C3=CC=C(C=C3)O
In short: as §1

[8] = compound: CC1=CC=C(C=C1)SC2=C3C=C(SC3=CN=C2)C(=O)N
In short: as §1

Measured: log2 fold change

COPB1 (UniProt P53618)
inactive: ibrutinib -0.013 | [1] -0.013 | ralimetinib 0.01 | [2] -0.007 | [3] -0.012 | [4] -0.016 | [5] -0.011 | [6] 0.026 | [7] 0.009 | [8] -0.004

COPE (UniProt O14579)
inactive: ibrutinib 0.041 | [1] -0.011 | ralimetinib 0.027 | [2] -0.027 | [3] -0.001 | [4] -0.035 | [5] -0.005 | [6] 0.046 | [7] 0.001 | [8] 0.009

CNPY2 (UniProt Q9Y2B0)
inactive: ibrutinib 0.037 | [1] 0.048 | ralimetinib 0.01 | [2] 0.022 | [3] 0.025 | [4] -0.04 | [5] 0.006 | [6] -0.036 | [7] 0.004 | [8] -0.001

COMMD7 (UniProt Q86VX2)
inactive: ibrutinib 0.018 | [1] -0.007 | ralimetinib -0.001 | [2] -0.048 | [3] 0.027 | [4] -0.018 | [5] -0.036 | [6] 0.029 | [7] 0.003 | [8] 0.021

COASY isoform 2 (UniProt Q13057)
inactive: ibrutinib 0.024 | [1] -0.015 | ralimetinib 0.103 | [2] 0.002 | [3] -0.003 | [4] 0.013 | [5] -0.001 | [6] -0.013 | [7] 0.037 | [8] 0.014

CPOX (UniProt P36551)
inactive: ibrutinib -0.02 | [1] 0.095 | ralimetinib 0.003 | [2] -0.058 | [3] -0.005 | [4] 0.008 | [5] -0.01 | [6] 0.012 | [7] 0.007 | [8] 0

CNPY4 (UniProt Q8N129)
inactive: ibrutinib -0.004 | [1] 0.01 | ralimetinib 0.013 | [2] -0.263 | [3] -0.023 | [4] 0.009 | [5] 0.06 | [6] 0.033 | [7] -0.053 | [8] -0.07

COMT (UniProt P21964)
inactive: ibrutinib 0.01 | [1] 0.019 | ralimetinib 0.01 | [2] 0.016 | [3] 0.009 | [4] -0.045 | [5] 0.002 | [6] 0.031 | [7] 0.019 | [8] 0.01

COPZ1 isoform 4 (UniProt P61923)
inactive: ibrutinib 0.123 | [1] 0.007 | ralimetinib 0 | [2] 0.013 | [3] 0.02 | [4] -0.054 | [5] 0.037 | [6] 0.03 | [7] -0.012 | [8] 0.117

CPED1 (UniProt A4D0V7)
inactive: ibrutinib 0.04 | [1] -0.054 | ralimetinib -0.031 | [2] 0.006 | [3] 0.064 | [4] 0.055 | [5] 0.01 | [6] -0.016 | [7] -0.026 | [8] 0.006

COLGALT1 (UniProt Q8NBJ5)
inactive: ibrutinib -0.025 | [1] -0.004 | ralimetinib 0.008 | [2] -0.007 | [3] -0.005 | [4] -0.008 | [5] 0.014 | [6] -0.007 | [7] 0.002 | [8] 0.008

COX7C (UniProt P15954)
inactive: ibrutinib -0.11 | [1] -0.004 | ralimetinib 0.062 | [2] -0.029 | [3] 0.037 | [4] -0.038 | [5] -0.033 | [6] 0.012 | [7] -0.065 | [8] -0.001

COMMD3 (UniProt Q9UBI1)
inactive: ibrutinib -0.042 | [1] -0.051 | ralimetinib 0.009 | [2] -0.025 | [3] 0.015 | [4] 0.001 | [5] 0.023 | [6] 0.04 | [7] 0.026 | [8] 0.034

CNOT1 (UniProt A5YKK6)
inactive: ibrutinib -0.012 | [1] 0.009 | ralimetinib 0.014 | [2] -0.013 | [3] -0.013 | [4] 0.007 | [5] 0.002 | [6] 0.003 | [7] 0.018 | [8] 0

CPT2 (UniProt P23786)
inactive: ibrutinib 0.116 | [1] -0.027 | ralimetinib -0.029 | [2] -0.067 | [3] 0.134 | [4] 0.018 | [5] -0.123 | [6] 0.047 | [7] 0.048 | [8] -0.047

COMMD6 isoform 2 (UniProt Q7Z4G1)
inactive: ibrutinib 0.021 | [1] 0.003 | ralimetinib 0.011 | [2] -0.087 | [3] 0.028 | [4] -0.104 | [5] 0.04 | [6] 0 | [7] 0.053 | [8] 0.215

Reprinted at random: 2 entries already listed.
CNOT1 (UniProt A5YKK6)
inactive: ibrutinib -0.012 | [1] 0.009 | ralimetinib 0.014 | [2] -0.013 | [3] -0.013 | [4] 0.007 | [5] 0.002 | [6] 0.003 | [7] 0.018 | [8] 0

CPT2 (UniProt P23786)
inactive: ibrutinib 0.116 | [1] -0.027 | ralimetinib -0.029 | [2] -0.067 | [3] 0.134 | [4] 0.018 | [5] -0.123 | [6] 0.047 | [7] 0.048 | [8] -0.047

Remaining list, next part.

CPVL (UniProt Q9H3G5)
inactive: ibrutinib 0.097 | [1] -0.028 | ralimetinib -0.018 | [2] -0.073 | [3] -0.043 | [4] 0.177 | [5] 0 | [6] 0.119 | [7] 0.143 | [8] -0.009

COPS3 (UniProt Q9UNS2)
inactive: ibrutinib 0.004 | [1] -0.017 | ralimetinib -0.018 | [2] -0.026 | [3] 0.001 | [4] -0.005 | [5] 0.005 | [6] 0.058 | [7] -0.003 | [8] -0.004

COX5B (UniProt P10606)
inactive: ibrutinib 0.113 | [1] -0.074 | ralimetinib -0.041 | [2] 0.086 | [3] -0.025 | [4] -0.046 | [5] -0.027 | [6] 0.13 | [7] 0.034 | [8] 0.069

CNN1 (UniProt P51911)
inactive: ibrutinib 0.006 | [1] -0.055 | ralimetinib 0.076 | [2] 0.068 | [3] 0.015 | [4] 0.029 | [5] 0.037 | [6] 0.01 | [7] -0.002 | [8] 0.004

CPSF3 (UniProt Q9UKF6)
inactive: ibrutinib 0.014 | [1] 0.021 | ralimetinib 0.042 | [2] 0.007 | [3] -0.037 | [4] 0.005 | [5] 0.017 | [6] -0.032 | [7] 0.038 | [8] 0.012

COX18 (UniProt Q8N8Q8)
inactive: ibrutinib -0.004 | [1] -0.037 | ralimetinib 0.058 | [2] -0.035 | [3] -0.005 | [4] 0.072 | [5] 0.024 | [6] 0.064 | [7] -0.022 | [8] 0.001

COL6A5 (UniProt A8TX70)
inactive: ibrutinib 0.046 | [1] -0.023 | ralimetinib -0.083 | [2] -0.141 | [3] 0.018 | [4] 0.063 | [5] -0.038 | [6] 0.108 | [7] -0.011 | [8] -0.053

COMMD2 (UniProt Q86X83)
inactive: ibrutinib -0.022 | [1] -0.037 | ralimetinib 0.058 | [2] -0.007 | [3] -0.001 | [4] 0.02 | [5] 0.009 | [6] 0.003 | [7] 0.012 | [8] 0.049

CORO7 isoform 3 (UniProt P57737)
inactive: ibrutinib -0.01 | [1] 0.002 | ralimetinib 0.016 | [2] 0.031 | [3] 0.009 | [4] -0.013 | [5] -0.006 | [6] -0.006 | [7] 0.02 | [8] 0.005

COQ7 (UniProt Q99807)
inactive: ibrutinib 0.014 | [1] 0.028 | ralimetinib 0.011 | [2] -0.059 | [3] -0.012 | [4] -0.005 | [5] -0.064 | [6] 0.019 | [7] 0.057 | [8] -0.035

CPT1A (UniProt P50416)
inactive: ibrutinib 0.042 | [1] -0.021 | ralimetinib -0.016 | [2] 0.008 | [3] -0.026 | [4] -0.009 | [5] -0.041 | [6] -0.05 | [7] -0.008 | [8] 0.017

COG7 (UniProt P83436)
inactive: ibrutinib -0.04 | [1] -0.012 | ralimetinib 0.03 | [2] 0.006 | [3] -0.049 | [4] -0.034 | [5] -0.001 | [6] -0.029 | [7] 0.058 | [8] -0.007

CPNE7 (UniProt Q9UBL6)
inactive: ibrutinib 0.004 | [1] 0.015 | ralimetinib -0.011 | [2] -0.069 | [3] -0.052 | [4] 0.025 | [5] -0.017 | [6] 0.016 | [7] -0.021 | [8] 0.019

CNIH4 (UniProt Q9P003)
inactive: ibrutinib 0.13 | [1] -0.014 | ralimetinib 0.006 | [2] -0.152 | [3] 0.278 | [4] 0.066 | [5] -0.115 | [6] -0.008 | [7] 0.211 | [8] -0.024
